From article PMC7763331, “First Evidence of a Protective Effect of Plant Bioactive Compounds against H2O2-Induced Aconitase Damage in Durum Wheat Mitochondria” (Antioxidants, 2020)

Tested on: T1, DWM-aconitase
T1 construct: gene ACO; not purified; homeologous genes not distinguished
Test: aconitase/isocitrate dehydrogenase coupled assay, NADPH absorbance at […] nm
Assay type: biochemical, Triticum turgidum subsp. durum
Details: pH 8.0, 0.1% Triton X-100, 25 °C, 20 mM citrate; 10 min pre-incubation of mitochondria, no H2O2; activator; direct binding not shown

Row | SMILES | % activation at 150 μM
1 | COc1cc(/C=C/C(=O)CC(=O)/C=C/c2ccc(O)c(OC)c2)ccc1O [curcumin] | ~ 65%
2 | O=c1cc(-c2ccc(O)cc2)oc2cc(O)cc(O)c12 [apigenin] | ~ 50%
3 | O=c1c(O)c(-c2ccc(O)c(O)c2)oc2cc(O)cc(O)c12 [quercetin] | ~ 25%
